We go through 54 compounds from PubChem BioAssay AID2685 (National Center for Advancing Translational Sciences (NCATS), 2010).

This test can be described thus: qHTS Assay for Lipid Storage Modulators in Drosophila S3 Cells.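 As to cell number change: cells counted by Cell Tracker Red CMTPX staining in the red channel.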 As to conditions: BODIPY lipid droplet fluorescence, 18-24 h; for cell number change: measured here: cell count max response, cells fed with added oleic acid. In short, it runs like this:
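Drosophila S3 cells loaded with oleic acid (400 uM, as added) and compounds at several concentrations; lipid droplets imaged by 488-nm laser-scanning cytometry, 500–530 nm intensity and object ratio to cell channel. Percent activity normalized to 20 uM Triacsin C.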
(In general: In qHTS, concentration-response curves come from the screen itself.)

Where [1] appears, read: measured here: cell number channel AC50, cells fed with added oleic acid.
Setting [2] is: measured here: lipid fluorescence (Fed channel) AC50, cells fed with added oleic acid.

The list shows a part of the results. Shown are side measurements of this screen, not its main read-out; they come without a call. Compounds called inactive in the main read-out are mostly missing here. Potencies come from curve fits of mixed quality, noted in brackets. Where a SMILES comes first, the peptide text is derived from it. The star is where a group is joined. Boc = CC(C)(C)OC(=O)*; Bn = c1ccc(C*)cc1; NHNH2 = NN*

Regarding `CCCc1ccc(-c2cc(C(=O)N/N=C/c3ccc([N+](=O)[O-])o3)c3ccccc3n2)cc1`, the AC50 (as a rule, the midpoint of the concentration-response curve, whichever way the signal moves) by setting is: under setting [1], 1.46 µM [rising, partial curve]; under setting [2], 2.31 µM [rising, partial curve].

In the case of `CCCCN(C(=O)C1CC(=O)N(c2ccc(C)cc2)C1)c1c(N)n(CCC)c(=O)[nH]c1=O` (stereo not given), under setting [2], the half-maximal activity concentration (AC50) is 0.00461 µM [falling, full curve, poor fit].

Take `COc1ccc(OCC(NS(=O)(=O)c2ccc(-n3cnnn3)cc2)C(C)C)cc1` (stereo not given): under setting [2], the concentration at half-maximal activity (AC50) was 0.103 µM [falling, full curve, poor fit].

In the case of `O=C(NNC(=S)Nc1ccc(Br)cc1)c1cccnc1`, the cell number change is 21.6%. Besides, the AC50 under setting [1] is 4.11 µM [rising, full curve, poor fit]. Moreover, under setting [2], the AC50 was 6.51 µM [rising, partial curve].

Consider `N#C/C(=C\c1ccc(OCc2ccc(Br)cc2)cc1)C(=O)Nc1cccc(C(=O)O)c1`, for which the cell number change amounted to 17.1%. The AC50 under setting [2] was 29.1 µM [rising, partial curve].

In the case of `Cc1cc(O)c(-c2ccno2)cc1Cl`, the cell number change was -26.6%. Moreover, the AC50 under setting [2] is 1.64 µM [falling, partial curve].

`O=c1ccc(OCCOc2ccccc2)nn1-c1ccccc1`: the cell number change was -52.7%. In addition, under setting [1], the AC50 was 29.1 µM [falling, single point]. Also, under setting [2], the AC50 was 29.1 µM [falling, single point].

For `O=C(O)CN1CCOCCOCCN(CC(=O)O)CCOCCOCC1`, the cell number change was -49.3%. For the same compound, the half-maximal activity concentration (AC50) under setting [1] is 5.8 µM [falling, full curve]. For the same compound, under setting [2], the AC50 is 0.58 µM [falling, full curve, poor fit].

`Cc1ccn2c(=O)nc(SCC(=O)NCc3ccccc3)nc2c1`: the cell number change came out at 36.9%. For the same compound, under setting [1], the half-maximal activity concentration (AC50) is 16.4 µM [rising, partial curve, poor fit].

Regarding `COC(=O)c1c(NC(=O)CSc2ncnc3[nH]ncc23)sc2c1CCC2`, the cell number change was -45.8%. For the same compound, the half-maximal activity concentration (AC50) under setting [1] was 29.1 µM [falling, single point]. Besides, the AC50 under setting [2] is 0.82 µM [falling, partial curve, poor fit].

As for `CCOC(=O)c1c(N)sc(C(O)(C(F)(F)F)C(F)(F)F)c1-c1ccc(Cl)cc1`, the cell number change turned out to be 10.7%. Moreover, under setting [1], the AC50 is 2.31 µM [rising, partial curve]. In addition, the AC50 under setting [2] is 2.59 µM [rising, partial curve].

Turning to `CCCOc1ccc(/C(O)=C2/C(=O)C(=O)N(CCCOC)C2c2ccncc2)cc1` (stereo not given), the cell number change was -86.3%. Further, under setting [1], the AC50 is 23.1 µM [falling, partial curve, poor fit]. Also, under setting [2], the AC50 is 25.9 µM [falling, partial curve].

As to `COc1ccc(-c2nc3ccccc3n2OC(C)C(=O)O)cc1` (stereo not given), the cell number change was -13.8%. In addition, the AC50 under setting [2] is 29.1 µM [falling, single point].

As for `COc1ccc(NC(=O)c2ccc(-c3ccccc3)cc2)cc1NS(=O)(=O)c1ccc(F)cc1`, the cell number change was 3.1%. Also, under setting [2], the AC50 is 0.651 µM [rising, full curve].

Regarding `COc1ccc(-c2noc(COc3ccc4c(c3)OCO4)n2)cc1OC`, the cell number change is -31.9%. Further, the AC50 under setting [2] is 23.1 µM [falling, single point].

Regarding `Cc1ccc(CNC(=O)Cn2ccc3cc(S(=O)(=O)N4CCCCCC4)ccc32)cc1`, the cell number change was -3.44%. Further, the AC50 under setting [2] was 5.17 µM [rising, single point].

Take `Cc1cc(NC(=O)CN2CCOCC2)n(-c2nc3ccccc3s2)n1`: the cell number change is -15%. In addition, under setting [2], the AC50 was 1.46 µM [rising, partial curve].

For `CCOC(=O)c1c(NC(=O)Nc2cccc(Cl)c2)sc(C)c1C`, the cell number change came out at 9.8%. For the same compound, the AC50 under setting [1] is 0.517 µM [rising, full curve]. Moreover, the AC50 under setting [2] is 0.13 µM [rising, full curve, poor fit].

Consider `CS(=O)(=O)c1ccc(Cl)c(NC(=O)CSc2nnc(C3CC3)n2C2CC2)c1`, for which the cell number change is -27.1%. The AC50 under setting [2] was 1.84 µM [falling, full curve, poor fit].

Take `CCCCNC(=S)N(C)/N=C/c1ccc(OCC(=O)Nc2c(C)cc(C)cc2C)c(OC)c1`: the cell number change came to 4.75%.

With `Cc1ccc(NC(=O)CCN2C(=O)c3ccccc3S2(=O)=O)cc1F`, the AC50 under setting [2] is 1.46 µM [rising, partial curve].

In the case of `CC1CCCC(C(=O)O)N1C(=O)CCS` (stereo not given), the cell number change turned out to be 2.38%. Also, under setting [2], the concentration at half-maximal activity (AC50) is 0.058 µM [rising, full curve, poor fit].

Consider `CC(=O)c1cccc(-n2nnnc2SCC(=O)Nc2cccc(NC(=O)c3ccco3)c2)c1`, for which the cell number change is -5.96%. For the same compound, the concentration at half-maximal activity (AC50) under setting [2] was 18.4 µM [falling, partial curve].

As for `S=C1NC(c2ccccc2)=CC(c2ccccc2)N1` (stereo not given), the AC50 under setting [2] is 0.58 µM [rising, single point].

Regarding `C/C(NC(=O)c1cccc(F)c1)=C1/C(=O)C[C@@H]2[C@H]1C2(C)C`, the concentration at half-maximal activity (AC50) under setting [1] was 6.51 µM [rising, partial curve, poor fit].

For `Cc1noc(C)c1C(=O)N1CCCC(N2CCN(c3cccc(C(F)(F)F)c3)CC2)C1` (stereo not given), the cell number change was -13.9%. Moreover, the AC50 under setting [1] was 0.116 µM [rising, full curve, poor fit]. Also, the AC50 under setting [2] was 0.58 µM [falling, single point].

As to `Cc1ccc2nc(N3C(=O)C(O)=C(C(=O)c4ccco4)C3c3cccs3)sc2c1` (stereo not given), the cell number change was 10.1%. Also, the half-maximal activity concentration (AC50) under setting [2] was 0.13 µM [falling, full curve, poor fit].

Regarding `O=C(NCCc1ccccc1)c1cc(S(=O)(=O)N2CCOCC2)ccc1F`, the cell number change was 12.8%.

Consider `COc1cccc(NC(=S)N(CCCN2CCCC(C)C2)Cc2cccs2)c1` (stereo not given), for which the cell number change amounted to 57.9%. The half-maximal activity concentration (AC50) under setting [2] is 11.6 µM [rising, partial curve].

In the case of `Cc1ccccc1NC(=O)NC1(C(=O)N2CCC(C(N)=O)CC2)CCCCC1`, the cell number change is 15.3%. Further, the AC50 under setting [2] is 6.51 µM [falling, partial curve, poor fit].

Turning to `CCOC(=O)N1CCN(C(=O)CSc2ccc(Cl)cc2)CC1`, the AC50 under setting [2] was 5.17 µM [falling, single point].

Regarding `COc1cc(C(C(=O)NC2CCCC2)N(C(=O)c2snc(C(N)=O)c2N)C2CCCC2)cc(OC)c1OC` (stereo not given), the cell number change amounted to 25.6%.

In the case of `CCOC(=O)c1c(C)nc2sc3c(=O)n(-c4ccc(C(C)=O)cc4)cnc3c2c1-c1ccc(Cl)cc1`, the cell number change was -9.37%. Further, under setting [2], the AC50 was 6.51 µM [falling, single point].

As for `O=C(CSc1nc2ccccc2c(=O)n1Cc1ccco1)c1ccccc1`, the cell number change was -20.1%.

Take `O=C1CSC(c2ccc(Cl)c(Cl)c2)N1c1nccs1` (stereo not given): the cell number change worked out at 23%. In addition, the AC50 under setting [2] was 9.2 µM [rising, partial curve].

Consider `O=C(O)CCc1nc2cc(Cl)ccc2n(Cc2ccccc2)c1=O`, for which the AC50 under setting [2] is 2.06 µM [falling, partial curve, poor fit].

For the compound `CCOC(=O)c1ccc(-n2c(=O)[nH]c3ccccc3c2=O)cc1`, the cell number change was 69.8%. Under setting [1], the AC50 was 29.1 µM [rising, single point].

`O=C(Nc1ccc([N+](=O)[O-])cc1)c1ccc(Cn2cc([N+](=O)[O-])cn2)cc1`: the cell number change is -32.5%. Also, the AC50 under setting [1] was 11.6 µM [falling, single point]. Under setting [2], the AC50 was 0.92 µM [falling, full curve].

For the compound `CCOc1ccc(Br)cc1S(=O)(=O)Nc1cccc(S(=O)(=O)N(C)C)c1`, the cell number change is -51.7%. Further, the AC50 under setting [1] is 11.6 µM [falling, partial curve]. For the same compound, the AC50 under setting [2] was 7.31 µM [falling, partial curve].

Take `Cc1ccc(-c2[nH][nH]c(=O)c(=O)c2N=Nc2ccccc2)cc1`: the cell number change was found to be 40.2%. Further, the concentration at half-maximal activity (AC50) under setting [1] is 23.1 µM [rising, single point]. For the same compound, under setting [2], the AC50 is 23.1 µM [rising, single point].

On to `O=C(O)C1CCN(C(=O)NC2CCCCC2)CC1`, for which the cell number change is -4.13%.

Consider `CC(=O)Nc1ccc(C(=S)NCCCO)cc1`, for which the AC50 under setting [2] was 6.51 µM [falling, single point].

`CCOC(=O)c1sc(S(C)=O)c2c1CCc1conc1-2` (stereo not given): the cell number change was -58%. Under setting [1], the AC50 is 6.51 µM [falling, partial curve]. Also, the AC50 under setting [2] is 6.51 µM [falling, partial curve].

On to `O=C(N/N=C/c1ccc([N+](=O)[O-])s1)c1cccnc1`, for which the cell number change is -26.3%. For the same compound, under setting [2], the AC50 is 14.6 µM [falling, partial curve].

With `CCOC(=O)CNC(=O)c1ccc(C)cc1`, the cell number change is -10.2%. Besides, the AC50 under setting [2] is 20.6 µM [falling, partial curve].

In the case of `Cc1ccc2[nH]c3c(=O)n(CC(=O)Nc4ccccc4N4CCN(C)CC4)ncc3c2c1`, the cell number change was -14.6%. Under setting [1], the AC50 was 1.64 µM [rising, partial curve, poor fit].

With `O=C(N/N=C/c1c[nH]c2ccccc12)C1CC1c1ccccc1` (stereo not given), the cell number change is -26.3%. The AC50 under setting [2] was 16.4 µM [falling, single point].

For `CC(C)CC(NC(=O)C(COCc1ccccc1)NC(=O)OC(C)(C)C)C(=O)NN` (stereo not given) (Boc-Ser(Bn)-Leu-NHNH2; configuration not given here), the cell number change is -9.61%. For the same compound, under setting [1], the AC50 was 3.26 µM [falling, partial curve]. The AC50 under setting [2] is 6.51 µM [falling, single point].

Consider `CC(C)CCNC(=O)c1cc(-c2ccco2)nc2ccccc12`, for which the cell number change is 1.55%. Moreover, the AC50 under setting [1] was 0.116 µM [rising, full curve]. In addition, under setting [2], the AC50 is 0.13 µM [rising, full curve, poor fit].

`C=CCOc1ccc(CN(C)c2ccc(S(=O)(=O)N3CCN(C)CC3)cc2[N+](=O)[O-])cc1`: the cell number change is 6.69%. In addition, the AC50 under setting [2] is 14.6 µM [falling, single point].

In the case of `COc1ccc(S(=O)(=O)N2CCC(C(=O)NCc3ccncc3)CC2)cc1Cl`, the cell number change is 22.4%. Also, the AC50 under setting [2] was 0.112 µM [falling, full curve, poor fit].

As to `O=C(CS(=O)CC(=O)N(c1cccc(F)c1)C(C(=O)NC1CCCCC1)c1ccco1)Nc1ccc(F)cc1` (stereo not given), the cell number change came to 25.4%. For the same compound, the AC50 under setting [2] was 13 µM [rising, partial curve, poor fit].

Consider `CCC(c1nnnn1C(C)(C)CC)N1CCN(c2ccccc2F)CC1` (stereo not given), for which the cell number change came out at 18.3%. Also, under setting [1], the half-maximal activity concentration (AC50) is 4.61 µM [falling, single point].

Take `O=C(Cn1c(C(=O)NCc2ccco2)cc2sccc21)c1ccccc1`: the cell number change was -85%. Also, the AC50 under setting [1] was 5.17 µM [falling, partial curve]. For the same compound, the AC50 under setting [2] is 1.84 µM [falling, full curve].
